Results as given in paper PMC11574294.
These are yes or no findings as the source states them, for the method shown. In cells and extracts the contact can be indirect. A yes stands for co-enrichment or nearness to the bait. Other partners may have been found.

The chains behind the UniProt entries cited, without tags or fusion partners.
UniProt Q9P2E3: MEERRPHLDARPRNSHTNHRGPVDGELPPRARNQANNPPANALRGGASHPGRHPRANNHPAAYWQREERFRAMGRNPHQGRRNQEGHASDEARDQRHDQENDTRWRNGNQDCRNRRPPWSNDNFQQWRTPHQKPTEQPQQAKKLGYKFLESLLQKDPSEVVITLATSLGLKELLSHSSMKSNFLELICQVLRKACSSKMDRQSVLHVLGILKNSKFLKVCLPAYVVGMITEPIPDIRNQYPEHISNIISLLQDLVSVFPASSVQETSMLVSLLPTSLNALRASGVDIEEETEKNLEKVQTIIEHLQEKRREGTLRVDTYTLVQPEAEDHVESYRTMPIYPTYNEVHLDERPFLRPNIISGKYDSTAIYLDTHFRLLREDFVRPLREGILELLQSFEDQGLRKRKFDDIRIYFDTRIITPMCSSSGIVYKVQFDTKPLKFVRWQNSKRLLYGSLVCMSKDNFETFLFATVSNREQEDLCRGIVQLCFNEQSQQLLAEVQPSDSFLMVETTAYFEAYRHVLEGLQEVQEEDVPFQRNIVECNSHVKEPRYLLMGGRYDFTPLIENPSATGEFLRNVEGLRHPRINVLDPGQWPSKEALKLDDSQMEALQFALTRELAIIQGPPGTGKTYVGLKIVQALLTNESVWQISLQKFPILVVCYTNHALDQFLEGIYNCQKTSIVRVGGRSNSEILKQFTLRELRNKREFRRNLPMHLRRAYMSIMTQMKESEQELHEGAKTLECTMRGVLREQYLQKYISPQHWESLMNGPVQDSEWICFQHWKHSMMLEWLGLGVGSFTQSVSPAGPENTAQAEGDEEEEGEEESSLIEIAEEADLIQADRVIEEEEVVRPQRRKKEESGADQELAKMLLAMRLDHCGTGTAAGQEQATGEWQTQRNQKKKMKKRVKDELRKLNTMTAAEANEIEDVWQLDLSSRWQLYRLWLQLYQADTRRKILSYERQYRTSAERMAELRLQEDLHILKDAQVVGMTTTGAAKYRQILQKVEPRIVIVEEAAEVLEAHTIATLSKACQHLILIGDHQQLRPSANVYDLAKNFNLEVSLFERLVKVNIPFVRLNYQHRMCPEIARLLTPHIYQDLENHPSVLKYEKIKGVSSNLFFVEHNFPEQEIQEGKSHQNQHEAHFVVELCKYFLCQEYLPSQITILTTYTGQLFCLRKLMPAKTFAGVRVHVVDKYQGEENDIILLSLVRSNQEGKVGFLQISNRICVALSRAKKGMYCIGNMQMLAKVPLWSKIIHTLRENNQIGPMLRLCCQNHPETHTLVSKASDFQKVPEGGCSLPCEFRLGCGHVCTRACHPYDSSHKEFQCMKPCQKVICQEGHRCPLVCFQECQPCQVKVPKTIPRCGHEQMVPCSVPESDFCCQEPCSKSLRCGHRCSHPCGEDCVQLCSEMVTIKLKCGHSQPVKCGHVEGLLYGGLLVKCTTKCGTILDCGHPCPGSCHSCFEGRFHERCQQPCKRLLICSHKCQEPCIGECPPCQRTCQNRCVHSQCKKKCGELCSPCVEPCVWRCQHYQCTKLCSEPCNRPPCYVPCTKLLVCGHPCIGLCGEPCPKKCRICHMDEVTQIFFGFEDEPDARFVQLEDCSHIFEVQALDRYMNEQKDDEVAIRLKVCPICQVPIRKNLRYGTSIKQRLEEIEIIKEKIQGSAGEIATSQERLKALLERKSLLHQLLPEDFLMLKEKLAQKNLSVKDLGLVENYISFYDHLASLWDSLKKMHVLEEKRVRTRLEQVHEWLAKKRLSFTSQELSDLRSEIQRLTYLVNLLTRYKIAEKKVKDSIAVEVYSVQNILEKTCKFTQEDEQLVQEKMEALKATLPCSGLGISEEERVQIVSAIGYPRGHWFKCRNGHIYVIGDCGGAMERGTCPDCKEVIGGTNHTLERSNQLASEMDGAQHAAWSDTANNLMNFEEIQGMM
UniProt Q96P20: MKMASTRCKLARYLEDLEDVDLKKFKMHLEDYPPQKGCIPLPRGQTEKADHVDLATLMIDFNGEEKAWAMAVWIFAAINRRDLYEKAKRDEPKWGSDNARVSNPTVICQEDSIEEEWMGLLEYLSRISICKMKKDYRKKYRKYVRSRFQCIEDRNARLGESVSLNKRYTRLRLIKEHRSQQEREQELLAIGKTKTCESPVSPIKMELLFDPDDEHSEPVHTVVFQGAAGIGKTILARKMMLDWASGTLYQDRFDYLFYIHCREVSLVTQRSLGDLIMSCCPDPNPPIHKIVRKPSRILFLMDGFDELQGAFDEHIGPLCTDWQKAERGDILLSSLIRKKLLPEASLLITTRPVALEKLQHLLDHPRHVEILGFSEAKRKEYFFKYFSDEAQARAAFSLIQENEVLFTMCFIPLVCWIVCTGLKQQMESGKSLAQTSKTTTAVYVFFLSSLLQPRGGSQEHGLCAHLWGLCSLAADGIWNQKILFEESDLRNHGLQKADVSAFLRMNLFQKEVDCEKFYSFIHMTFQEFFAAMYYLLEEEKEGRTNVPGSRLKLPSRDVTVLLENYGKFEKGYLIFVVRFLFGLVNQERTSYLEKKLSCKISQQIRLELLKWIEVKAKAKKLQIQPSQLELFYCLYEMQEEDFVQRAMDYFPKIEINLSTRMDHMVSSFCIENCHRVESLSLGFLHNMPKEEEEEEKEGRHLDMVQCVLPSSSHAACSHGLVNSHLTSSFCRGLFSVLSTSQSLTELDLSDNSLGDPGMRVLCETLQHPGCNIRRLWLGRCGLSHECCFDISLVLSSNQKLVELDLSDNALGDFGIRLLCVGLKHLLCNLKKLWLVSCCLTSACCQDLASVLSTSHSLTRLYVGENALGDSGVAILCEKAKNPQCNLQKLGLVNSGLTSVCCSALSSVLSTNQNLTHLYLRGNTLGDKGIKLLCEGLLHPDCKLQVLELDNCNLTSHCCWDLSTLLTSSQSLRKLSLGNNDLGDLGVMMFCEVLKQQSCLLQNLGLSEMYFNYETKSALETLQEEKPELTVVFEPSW

Molecular target: 3xFLAG-miniTurbo-mEGFP-ZNFX1, stably expressed in HeLa cells (UniProt Q9P2E3)
Assay: proximity labelling; HeLa cells stably expressing miniTurbo-ZNFX1 and mCherry-NLRP3; 200 uM biotin 8 h; RIPA lysate; streptavidin magnetic beads; immunoblot

binding: binds
Substance: HA-mCherry-NLRP3, stably expressed in HeLa cells (from UniProt Q96P20 1-1036)
